Source: ChEMBL document CHEMBL3779865, “Discovery of Benzo[cd]indol-2(1H)-ones as Potent and Specific BET Bromodomain Inhibitors: Structure-Based Virtual Screening, Optimization, and Biological Evaluation” (J Med Chem, 2016)

Test: Efflux ratio of apparent permeability from basolateral to apical side over apical to basolateral side in human Caco2 cells at 10 uM incubated for 1 hr by HPLC-MS/MS analysis
Format: ADME, cell-based
Details: Caco-2

efflux ratio at 1 h, 10 µM: 11.2
SMILES: C[C@H]1O[C@@H](O[C@H]2[C@@H](O)C[C@H](O[C@H]3[C@@H](O)C[C@H](O[C@H]4CC[C@@]5(C)[C@H](CC[C@@H]6[C@@H]5C[C@@H](O)[C@]5(C)[C@@H](C7=CC(=O)OC7)CC[C@]65O)C4)O[C@@H]3C)O[C@@H]2C)C[C@H](O)[C@@H]1O [DIGOXIN]
